One molecule from publication PMC4872745 can be followed below.

Results are given in words; binding and its absence hold for the method and conditions named. In cells and extracts the contact can be indirect. Binding can be weak; no strength is given.

The target of this test is JNK (human (endogenous in SH-SY5Y)). In words: co-IP; SH-SY5Y treated with 0.5 uM TSA for 4 hours; WB with antibody against MKP-1, JNK and ERK.

B1: MAPK phosphatase-1 (MKP-1) (enzyme, UniProt P28562 1-367)
chain: MVMEVGTLDAGGLRALLGERAAQCLLLDCRSFFAFNAGHIAGSVNVRFSTIVRRRAKGAMGLEHIVPNAELRGRLLAGAYHAVVLLDERSAALDGAKRDGTLALAAGALCREARAAQVFFLKGGYEAFSASCPELCSKQSTPMGLSLPLSTSVPDSAESGCSSCSTPLYDQGGPVEILPFLYLGSAYHASRKDMLDALGITALINVSANCPNHFEGHYQYKSIPVEDNHKADISSWFNEAIDFIDSIKNAGGRVFVHCQAGISRSATICLAYLMRTNRVKLDEAFEFVKQRRSIISPNFSFMGQLLQFESQVLAPHCSAEAGSPAMAVLDRGTSTTTVFNFPVSIPVHSTNSALSYLQSPITTSPSC
As for B1, the binding entry was “binds”.
